The supplement of paper PMC9233669
Variants at the background level are over-represented here.

Columns and labels:
biotinyl-Val-oxazolone = test: self-aminoacylation, catalytic enhancement (BVO) (fold over background); higher = more active; k-Seq, kA / k0A0; sequences stand for … in GGGAAUGGAUCCACAUCUACGAAUUC…UUCACUGCAGACUUGACGAAGCUG
Outline: (§1)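 Mutagenized RNA pools with a 21-nt variable region (0.43 μM) were reacted with each biotinyl-aminoacyl-oxazolone at 2–1250 μM for 90 minutes at room temperature, in 50 μL HEPES/NaCl/KCl/MgCl2/CaCl2 buffer containing 5% acetonitrile at pH 6.9–7.0. RNA captured on streptavidin was quantified by triplicate qPCR and by Illumina sequencing. The fraction reacted for each sequence was fit to a pseudo-first-order model with bootstrapping, and catalytic enhancement is the median kA divided by the uncatalyzed rate, taken as the low-activity peak of a bimodal Gaussian fit.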

biotinyl-Met-oxazolone = test: self-aminoacylation, catalytic enhancement (BMO) (fold over background); higher = more active; k-Seq, kA / k0A0; sequences stand for … in GGGAAUGGAUCCACAUCUACGAAUUC…UUCACUGCAGACUUGACGAAGCUG
Outline: as §1

biotinyl-Trp-oxazolone = test: self-aminoacylation, catalytic enhancement (BWO) (fold over background); higher = more active; k-Seq, kA / k0A0; sequences stand for … in GGGAAUGGAUCCACAUCUACGAAUUC…UUCACUGCAGACUUGACGAAGCUG
Outline: as §1

biotinyl-Leu-oxazolone = test: self-aminoacylation, catalytic enhancement (BLO) (fold over background); higher = more active; k-Seq, kA / k0A0; sequences stand for … in GGGAAUGGAUCCACAUCUACGAAUUC…UUCACUGCAGACUUGACGAAGCUG
Outline: as §1

biotinyl-Ile-oxazolone = test: self-aminoacylation, catalytic enhancement (BIO) (fold over background); higher = more active; k-Seq, kA / k0A0; sequences stand for … in GGGAAUGGAUCCACAUCUACGAAUUC…UUCACUGCAGACUUGACGAAGCUG
Outline: as §1

| Sequence | self-aminoacylation (biotinyl-Val-oxazolone) | self-aminoacylation (biotinyl-Met-oxazolone) | self-aminoacylation (biotinyl-Trp-oxazolone) | self-aminoacylation (biotinyl-Leu-oxazolone) | self-aminoacylation (biotinyl-Ile-oxazolone) |
| --- | --- | --- | --- | --- | --- |
| AACUAUGCUAAUAGUCGCAAG [Fam3.1 aminoacylation ribozyme variant] | 1.75 | 1.96 | 2 |  |  |
| AAGCUUGCCAAUAGUCGCAAG [Fam3.1 aminoacylation ribozyme variant] | 2.42 | 2.48 | 3.62 | 2.23 | 2.31 |
| AAGCUUGCUAAUAGUCUCAAG [Fam3.1 aminoacylation ribozyme variant] | 1.13 | 1.22 | 1.6 | 1.09 | 1.33 |
| AAGGUUGCUAAUAAUCGCAAG [Fam3.1 aminoacylation ribozyme variant] | 1.02 | 1.11 | 1.59 | 1.19 | 1.41 |
| AAGUCUGCUAAUAGUCGCAAU [Fam3.1 aminoacylation ribozyme variant] | 1.37 | 1.95 | 1.53 | 1.65 | 1.33 |
| AAGUGUGCUAAUAGUGGCAAG [Fam3.1 aminoacylation ribozyme variant] | 0.611 | 0.86 | 0.881 | 0.939 | 0.824 |
| AAGUUAGCGAAUAGUCGCAAG [Fam3.1 aminoacylation ribozyme variant] | 1.66 | 1.53 | 1.78 | 1.55 | 1.69 |
| AAGUUAGCUAAUAGUCGCAAU [Fam3.1 aminoacylation ribozyme variant] | 1.53 | 1.42 | 1.85 | 1.52 | 1.9 |
| AAGUUCGCUAAUAGUCUCAAG [Fam3.1 aminoacylation ribozyme variant] | 1.54 | 1.35 | 1.69 | 1.36 | 1.74 |
| AAGUUUGCGAAUAGCCGCAAG [Fam3.1 aminoacylation ribozyme variant] | 1.22 | 1.01 | 0.953 | 1.25 | 1.6 |
| AAGUUUGCUAACAGCCGCAAG [Fam3.1 aminoacylation ribozyme variant] | 0.847 | 0.787 | 1.04 | 1.01 | 1.22 |
| AAGUUUGCUAAUAAUCGUAAG [Fam3.1 aminoacylation ribozyme variant] | 0.932 | 1.03 | 1.24 | 0.942 | 0.912 |
| AAUUUUACUAAUAGUCGCAAG [Fam3.1 aminoacylation ribozyme variant] | 1.85 | 1.95 | 1.52 | 1.81 |  |
| AUUCACCCAGGUCAUCGGGUU [Fam2.2 aminoacylation ribozyme variant] |  |  | 1.23 |  | 1.61 |
| AUUCACCGAGCUCAUCGGGUG [Fam2.2 aminoacylation ribozyme variant] |  |  | 1.64 |  |  |
| AUUCACCUAGCUCAUCGGGUG [Fam2.2 aminoacylation ribozyme variant] |  | 1.89 | 1.85 |  | 1.83 |
| AUUCACCUAGUUCAUCGGGGG [Fam2.2 aminoacylation ribozyme variant] | 1.64 | 1.85 | 1.86 |  | 1.32 |
| AUUCACUUAGCUCAUCGGGUG [Fam2.2 aminoacylation ribozyme variant] | 1.77 | 1.57 | 1.37 |  | 1.91 |
| CCACACGUCAAGCAAUCGGGC [Fam1B.1 aminoacylation ribozyme variant] |  | 1.05 | 1.4 | 1.15 | 1.25 |
| CCACACUUCAGGCGAUCGGUC [Fam1B.1 aminoacylation ribozyme variant] |  |  | 1.72 | 1.84 | 1.69 |

| Sequence | self-aminoacylation (biotinyl-Val-oxazolone) | self-aminoacylation (biotinyl-Met-oxazolone) | self-aminoacylation (biotinyl-Trp-oxazolone) | self-aminoacylation (biotinyl-Leu-oxazolone) | self-aminoacylation (biotinyl-Ile-oxazolone) |
| --- | --- | --- | --- | --- | --- |
| CCACACUUCCAGCAAUCGGGC [Fam1B.1 aminoacylation ribozyme variant] | 2.32 | 1.72 |  | 1.74 | 2 |
| CCACGCCUCAAGCAAUCGGUC [Fam1B.1 aminoacylation ribozyme variant] | 1.37 | 0.802 |  | 0.948 | 0.798 |
| CCACGCUUCAAGCAAUCGGUC [Fam1B.1 aminoacylation ribozyme variant] | 1.54 | 1.37 |  | 2.11 | 1.2 |
| CCACGCUUCAAGUAAUCGGUC [Fam1B.1 aminoacylation ribozyme variant] | 0.911 | 1.03 |  | 1.29 | 0.905 |
| CCACUUCAAAAAAUCGGUCUG [Fam1A.1 aminoacylation ribozyme variant] | 1.13 | 1.05 |  | 1.61 | 1.55 |
| CCCCACUUCAAGCCAUCGGUC [Fam1B.1 aminoacylation ribozyme variant] | 2.82 | 2.87 |  | 2.63 | 2.33 |
| CCUCUCUUCAAGCAAUCGGUC [Fam1B.1 aminoacylation ribozyme variant] | 1.27 | 1.11 |  | 1.6 | 1.09 |
| CGUCACUUCAAGCAAUCGGUC [Fam1B.1 aminoacylation ribozyme variant] | 1.02 | 1.36 |  | 1.25 | 1.04 |
| CUACCUCCAACAAUCGGUCUG [Fam1A.1 aminoacylation ribozyme variant] | 0.791 | 0.709 |  | 1.1 | 0.73 |
| CUACUGAAAACAAUCGGUCUG [Fam1A.1 aminoacylation ribozyme variant] | 0.706 | 0.735 |  | 0.708 | 0.84 |
| CUACUUCAAAAAAUCGGUCGG [Fam1A.1 aminoacylation ribozyme variant] | 0.994 | 1.3 |  | 1.57 | 1.14 |
| CUACUUCAAACAAUCAGUAUG [Fam1A.1 aminoacylation ribozyme variant] | 0.819 | 0.891 |  | 0.777 | 0.847 |
| CUACUUCAAACAAUCAGUCAG [Fam1A.1 aminoacylation ribozyme variant] | 0.791 | 0.663 |  | 0.825 | 0.754 |
| CUACUUCAAACAAUCGAUGUG [Fam1A.1 aminoacylation ribozyme variant] | 1.39 |  | 1.86 | 1.86 | 1.42 |
| CUACUUCAAACAAUCGGUCCC [Fam1A.1 aminoacylation ribozyme variant] | 0.771 | 0.979 |  | 1.29 | 0.834 |
| CUACUUCAAACAAUCGGUCCU [Fam1A.1 aminoacylation ribozyme variant] | 0.777 | 0.834 |  | 0.78 | 0.658 |
| CUACUUCAAACCAUCGGUCAG [Fam1A.1 aminoacylation ribozyme variant] | 0.771 | 0.609 |  | 0.488 | 0.67 |
| CUACUUCAAAUAAUCGGUCUC [Fam1A.1 aminoacylation ribozyme variant] | 0.838 | 0.69 |  | 0.747 | 0.682 |
| CUACUUCAACCAAUCGGUAUG [Fam1A.1 aminoacylation ribozyme variant] | 0.819 | 0.557 |  | 0.761 | 0.774 |
| CUACUUCAACCAAUCGGUGUG [Fam1A.1 aminoacylation ribozyme variant] | 1.16 | 1.27 |  | 1.46 | 1.08 |

| Sequence | self-aminoacylation (biotinyl-Val-oxazolone) | self-aminoacylation (biotinyl-Met-oxazolone) | self-aminoacylation (biotinyl-Trp-oxazolone) | self-aminoacylation (biotinyl-Leu-oxazolone) | self-aminoacylation (biotinyl-Ile-oxazolone) |
| --- | --- | --- | --- | --- | --- |
| CUACUUCAAGAAAUCGGUCUG [Fam1A.1 aminoacylation ribozyme variant] | 0.782 | 0.786 |  | 0.849 | 0.737 |
| CUACUUCAAGCAAUCGCUCUG [Fam1A.1 aminoacylation ribozyme variant] | 0.943 | 1.07 |  | 1.28 | 0.99 |
| CUACUUCAAGUAAUCGGUCUG [Fam1A.1 aminoacylation ribozyme variant] | 0.932 | 0.863 |  | 1.35 | 0.926 |
| CUACUUCAAUCAAUCGGUCAG [Fam1A.1 aminoacylation ribozyme variant] | 0.83 | 0.738 |  | 0.885 | 0.788 |
| CUACUUCGAAGAAUCGGUCUG [Fam1A.1 aminoacylation ribozyme variant] | 0.839 | 0.933 |  | 0.757 | 0.875 |
| CUACUUGAGACAAUCGGUCUG [Fam1A.1 aminoacylation ribozyme variant] | 1.01 | 0.94 |  | 0.962 | 0.884 |
| CUAGUUCAAACAAUCGGUCAG [Fam1A.1 aminoacylation ribozyme variant] | 0.753 | 0.731 |  | 0.692 | 0.714 |
| CUAUUUCAAACAAUCAGUCUG [Fam1A.1 aminoacylation ribozyme variant] | 0.852 | 0.721 |  | 0.72 | 0.795 |
| CUGCUUCAAACAAUCGGGCUG [Fam1A.1 aminoacylation ribozyme variant] | 2.33 | 2.66 |  | 3.18 | 2.2 |
| CUGGUUCAAACAAUCGGUCUG [Fam1A.1 aminoacylation ribozyme variant] | 0.971 | 1.02 |  | 1.23 | 1.01 |
| CUUCACCUAGGUCAUCGGGUC [Fam2.2 aminoacylation ribozyme variant] | 1.47 | 1.93 |  | 1.5 | 1.09 |
| GCACACUUCUAGCAAUCGGUC [Fam1B.1 aminoacylation ribozyme variant] | 1.22 | 0.936 |  | 0.999 | 1.2 |
| GUACUUCAAACAAUCGGUAUG [Fam1A.1 aminoacylation ribozyme variant] | 1.32 | 1.29 |  | 1.49 | 1.34 |
| GUACUUCAAAUAAUCGGUCUG [Fam1A.1 aminoacylation ribozyme variant] | 1.23 | 1.34 |  | 1.49 | 1.54 |
| GUUCACCUAGGUCAUCGGUUG [Fam2.2 aminoacylation ribozyme variant] | 1.11 | 1.09 |  | 1.38 | 1.17 |
| UCAAACUUCAAGCAAUCGGUC [Fam1B.1 aminoacylation ribozyme variant] | 1.19 | 1.05 |  | 1.45 | 1.17 |
| UCACCCUUCAAGCAAUCGGUC [Fam1B.1 aminoacylation ribozyme variant] | 1.15 | 0.946 |  | 0.934 | 1.03 |
| UCAUACUUCAAGCAAUCGGUC [Fam1B.1 aminoacylation ribozyme variant] | 1.02 | 0.995 |  | 1.19 | 1.18 |
| UUACUUCAAACAAUCAGUCUG [Fam1A.1 aminoacylation ribozyme variant] | 1.3 | 1.35 |  | 1.45 | 1.43 |
| UUUCACCGAGGUCAUCGGGUG [Fam2.2 aminoacylation ribozyme variant] | 5.17 | 7.19 |  | 6.07 | 4.52 |
